Reference: article doi:10.1101/2024.08.06.606634
Results are given in words; binding and its absence hold for the method and conditions named. Binding seen in cells or lysates may run through a third protein. Binding calls can cover weak binding; strength is not graded here.

Biological target: T1, βA3/A1-crystallin (endogenous, mouse RPE) (mouse (endogenous in mouse RPE)) (UniProt P02525)
T1 sequence: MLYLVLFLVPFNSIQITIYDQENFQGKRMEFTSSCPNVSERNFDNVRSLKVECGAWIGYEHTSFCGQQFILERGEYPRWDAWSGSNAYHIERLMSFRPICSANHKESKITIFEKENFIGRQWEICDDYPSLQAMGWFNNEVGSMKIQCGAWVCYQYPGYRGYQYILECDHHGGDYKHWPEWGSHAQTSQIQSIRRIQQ
Experiment: co-IP

casein kinase II (CK2) (endogenous, mouse RPE) (enzyme)
binding: binds
